These are yes or no findings as the source states them, for the method shown. Binding can be weak; no strength is given. For some assays here: In cells and extracts the contact can be indirect. For some assays here: Sequences can lack the tags named with a protein.
Experiments:
[1] = biological target: T1, COP1-YFP^N (Arabidopsis thaliana) (UniProt P43254); assay: split reporter; BiFC in epithelial cells of N. benthamiana leaves, Agrobacterium infiltration, YFP fluorescence by confocal microscopy 48 h after infiltration
T1 sequence: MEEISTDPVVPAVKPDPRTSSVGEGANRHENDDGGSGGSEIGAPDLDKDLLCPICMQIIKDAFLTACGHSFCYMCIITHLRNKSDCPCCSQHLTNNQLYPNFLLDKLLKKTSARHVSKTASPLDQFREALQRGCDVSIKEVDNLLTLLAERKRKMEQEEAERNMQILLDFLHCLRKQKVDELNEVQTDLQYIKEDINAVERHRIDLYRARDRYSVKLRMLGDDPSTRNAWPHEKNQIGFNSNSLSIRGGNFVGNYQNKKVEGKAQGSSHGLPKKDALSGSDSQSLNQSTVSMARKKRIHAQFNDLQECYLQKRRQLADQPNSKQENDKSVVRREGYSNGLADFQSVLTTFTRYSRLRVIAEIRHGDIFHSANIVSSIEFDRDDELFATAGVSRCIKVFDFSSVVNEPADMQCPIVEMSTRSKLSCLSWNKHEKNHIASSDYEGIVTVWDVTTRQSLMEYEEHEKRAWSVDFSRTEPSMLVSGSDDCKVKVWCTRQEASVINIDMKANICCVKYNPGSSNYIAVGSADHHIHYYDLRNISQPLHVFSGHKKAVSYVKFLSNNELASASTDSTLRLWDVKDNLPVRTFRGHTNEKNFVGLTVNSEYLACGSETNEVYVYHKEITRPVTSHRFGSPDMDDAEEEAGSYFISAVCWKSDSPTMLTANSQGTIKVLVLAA

Sequences of proteins named here, by UniProt entry; tags and fusion partners are left off. A change or cut given only in a name is not applied to a line headed by its entry.
UniProt O23174: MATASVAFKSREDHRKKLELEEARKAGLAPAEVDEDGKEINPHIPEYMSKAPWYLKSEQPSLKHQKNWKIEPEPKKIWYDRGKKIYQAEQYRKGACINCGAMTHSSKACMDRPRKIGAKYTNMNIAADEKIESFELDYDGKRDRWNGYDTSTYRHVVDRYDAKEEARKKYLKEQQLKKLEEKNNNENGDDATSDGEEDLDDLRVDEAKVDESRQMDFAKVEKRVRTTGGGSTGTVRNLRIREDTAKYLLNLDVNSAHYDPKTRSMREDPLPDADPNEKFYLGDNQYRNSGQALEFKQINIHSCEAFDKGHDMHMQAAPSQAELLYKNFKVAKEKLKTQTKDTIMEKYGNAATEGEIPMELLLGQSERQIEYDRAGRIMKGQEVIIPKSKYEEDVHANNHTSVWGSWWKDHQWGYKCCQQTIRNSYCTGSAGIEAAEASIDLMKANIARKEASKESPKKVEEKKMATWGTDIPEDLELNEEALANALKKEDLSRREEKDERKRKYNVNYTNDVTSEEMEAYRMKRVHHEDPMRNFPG
UniProt F4JXC2: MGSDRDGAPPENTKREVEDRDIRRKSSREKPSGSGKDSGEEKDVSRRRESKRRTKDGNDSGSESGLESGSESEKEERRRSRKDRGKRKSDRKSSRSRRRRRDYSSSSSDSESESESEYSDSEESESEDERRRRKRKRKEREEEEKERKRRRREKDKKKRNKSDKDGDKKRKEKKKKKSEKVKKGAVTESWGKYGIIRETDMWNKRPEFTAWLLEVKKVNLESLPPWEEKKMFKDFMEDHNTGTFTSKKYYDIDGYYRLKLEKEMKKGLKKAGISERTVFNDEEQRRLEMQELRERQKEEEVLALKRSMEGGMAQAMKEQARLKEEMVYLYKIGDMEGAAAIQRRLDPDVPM

[2] = biological target: T2, COP1 (Arabidopsis thaliana) (UniProt P43254); assay: two-hybrid; yeast two-hybrid in yeast cells: DCS proteins, DCS1 parts and mutated DCS1 proteins against COP1 (Fig. 5a, c, e; Supplementary Fig. 15a)
T2 sequence: T1 sequence

[3] = biological target: DCS5 (Arabidopsis thaliana) (UniProt O23174); assay: two-hybrid; Supplementary Fig. 15b, c: DCS1 and mutated DCS1 proteins against DCS5, SKIP, SR45 and U1-70K; yeast two-hybrid is named only for panel a of the same figure
[4] = biological target: T3, SKIP (Arabidopsis thaliana) (UniProt O80653); assay: as above
T3 sequence: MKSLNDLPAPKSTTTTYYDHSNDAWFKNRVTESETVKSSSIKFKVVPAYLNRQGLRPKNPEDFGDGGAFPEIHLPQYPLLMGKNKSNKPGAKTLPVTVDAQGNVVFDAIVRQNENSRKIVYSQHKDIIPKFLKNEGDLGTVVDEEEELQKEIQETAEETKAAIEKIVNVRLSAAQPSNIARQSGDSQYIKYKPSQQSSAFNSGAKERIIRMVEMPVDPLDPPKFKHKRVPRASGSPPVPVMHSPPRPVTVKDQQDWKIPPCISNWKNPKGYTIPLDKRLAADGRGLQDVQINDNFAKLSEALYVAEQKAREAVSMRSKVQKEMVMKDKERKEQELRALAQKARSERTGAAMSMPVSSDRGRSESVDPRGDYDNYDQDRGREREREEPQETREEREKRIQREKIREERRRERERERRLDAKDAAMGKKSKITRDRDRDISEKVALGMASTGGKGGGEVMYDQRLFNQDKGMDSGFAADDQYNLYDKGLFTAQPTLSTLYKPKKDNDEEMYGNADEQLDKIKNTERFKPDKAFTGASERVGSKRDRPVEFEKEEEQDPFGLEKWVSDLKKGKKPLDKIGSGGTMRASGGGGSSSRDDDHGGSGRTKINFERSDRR

[5] = biological target: T4, SR45 (Arabidopsis thaliana) (UniProt Q9SEE9); assay: as above
T4 sequence: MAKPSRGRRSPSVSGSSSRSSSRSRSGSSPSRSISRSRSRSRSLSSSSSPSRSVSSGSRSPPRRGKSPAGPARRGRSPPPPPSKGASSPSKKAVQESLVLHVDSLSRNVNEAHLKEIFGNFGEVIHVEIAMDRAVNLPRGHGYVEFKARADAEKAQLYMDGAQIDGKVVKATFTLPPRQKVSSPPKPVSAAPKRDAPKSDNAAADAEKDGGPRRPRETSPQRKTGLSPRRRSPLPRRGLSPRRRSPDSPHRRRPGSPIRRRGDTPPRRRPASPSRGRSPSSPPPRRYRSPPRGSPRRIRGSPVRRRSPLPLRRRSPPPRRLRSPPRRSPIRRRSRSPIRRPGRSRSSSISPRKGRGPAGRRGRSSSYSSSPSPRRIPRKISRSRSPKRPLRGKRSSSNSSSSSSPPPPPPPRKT

[6] = biological target: T5, U1-70K (Arabidopsis thaliana) (UniProt Q42404); assay: as above
T5 sequence: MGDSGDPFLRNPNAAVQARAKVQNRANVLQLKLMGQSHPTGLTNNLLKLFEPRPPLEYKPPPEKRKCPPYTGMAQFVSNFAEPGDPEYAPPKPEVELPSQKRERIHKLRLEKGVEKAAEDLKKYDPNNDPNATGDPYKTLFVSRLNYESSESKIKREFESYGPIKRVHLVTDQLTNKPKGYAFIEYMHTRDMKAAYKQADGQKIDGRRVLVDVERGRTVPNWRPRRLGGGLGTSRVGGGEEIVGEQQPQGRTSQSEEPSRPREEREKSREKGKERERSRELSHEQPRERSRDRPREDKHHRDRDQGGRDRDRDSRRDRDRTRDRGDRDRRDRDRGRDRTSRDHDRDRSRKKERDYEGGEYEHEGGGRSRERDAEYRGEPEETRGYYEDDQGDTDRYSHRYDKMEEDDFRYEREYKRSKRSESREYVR

Substance: DCS1-YFP^C (Arabidopsis thaliana)
- binding [1]: binds

Substance: DCS1 (Dominant cop1-6 Suppressor 1) (from UniProt F4JXC2)
- binding [2]: binds
- binding [3]: binds
- binding [4]: binds
- binding [5]: binds
- binding [6]: binds

Substance: DCS1-2 (Arabidopsis thaliana)
- binding [2]: no binding
- binding [4]: binds
- binding [5]: binds
- binding [6]: binds

Substance: DCS3 (Arabidopsis thaliana)
- binding [2]: no binding

Substance: DCS6 (Arabidopsis thaliana)
- binding [2]: no binding

Substance: DCS2 (Arabidopsis thaliana)
- binding [2]: no binding

Substance: DCS5 (from UniProt O23174)
- binding [2]: no binding

Substance: DCS4 (Arabidopsis thaliana)
- binding [2]: no binding

Substance: DCS1-3 (Arabidopsis thaliana)
- binding [2]: no binding
- binding [4]: binds
- binding [5]: binds
- binding [6]: binds

Substance: DCS1-1 (Arabidopsis thaliana)
- binding [2]: no binding
- binding [4]: binds
- binding [5]: binds
- binding [6]: binds

From publication PMC11180117
